Our source for the survivor count and T/C values is PubChem BioAssay AID332 (DTP/NCI, 2004).

Structures are written as SMILES. The list shows only some results of the screen, not a fair sample: it gathers tests that were run many times, whatever their T/C, doses with no T/C, and many T/C values between a quarter and a half above the control. Further doses and runs are listed elsewhere. T/C is the treated group as % of the vehicle group. Schedule codes are those of the source, taken here to give the interval after Q, in days (D) or hours (H), and the number of doses after X. Some structures stand for samples that the source files as different forms (salt, stereo form or complex); doses refer to the form tested. Some T/C values carry the count of animals alive at the toxicity check (mostly the fifth day); without a count, all were alive then. Some entries give survivors of the animals treated and no T/C: the source holds a T/C of zero for them, seemingly a mark for toxic or unscored doses. Counts of survivors are from the toxicity check (mostly the fifth day) where no day follows; animals may have died later. Numbered stars: 1 amine (or outer) side, 2 acyl side, 3 side chain; on linkers, the order of the positions; unused ones are H or OH. Bridge positions count the residues as written; N and C are the ends. Square brackets hold non-standard residues; d marks the D form. Peptide text beside a SMILES is read from it. I, II: the chains in the order shown. Actinocin(9to1) = Cc1c2oc3c(C)ccc(C(=O)[*:1])c3nc-2c(C(=O)[*:2])c(N)c1=O; aThr = C[C@H](O)[C@H](N)C(=O)O; NMeV = CN[C@H](C(=O)O)C(C)C; Sar = CNCC(=O)O

The assay has as its system mice, ADJ-PC-20 plasma cell tumor sc, T/C %. Nature of the assay: NCI In Vivo Anticancer Drug Screen. Data for tumor model ADJ-PC-20 Plasma Cell (subcutaneous) in unknown mice. The conditions noted are these: T/C endpoint: mean tumor weight, higher T/C = larger tumour; for T/C: evaluated on day 21. As to the method: The antitumor activity of compounds was measured in mice bearing transplantable tumors. Survival or tumor size were measured and the results are expressed as the measurement made in the treated group (T) divided by the measurement made in the vehicle treated control group (C). The tumor model used in this assay is ADJ-PC-20 Plasma Cell (subcutaneous) in unknown mice

Setting [1] is: dose: 2.0 mg/kg/injection, schedule: Q01DX010 (ip), vehicle: carboxymethylcellulose (CMC).
The mark [2] stands for this setting: dose: 8.0 mg/kg/injection, schedule: Q01DX010 (ip), vehicle: carboxymethylcellulose (CMC).
The mark [3] stands for this setting: dose: 250.0 mg/kg/injection, schedule: Q01DX010 (sc), vehicle: steroid suspending solution.
[4] abbreviates: dose: 500.0 mg/kg/injection, schedule: Q01DX010 (sc), vehicle: steroid suspending solution.
The mark [5] stands for this setting: dose: 0.31 mg/kg/injection, schedule: Q01DX010 (ip), vehicle: carboxymethylcellulose (CMC).
Setting [6] is: dose: 50.0 mg/kg/injection, schedule: Q01DX010 (ip), vehicle: carboxymethylcellulose (CMC).

Turning to `CN(Cc1cnc2nc(N)nc(N)c2n1)c1c(Cl)cc(C(=O)NC(CCC(=O)O)C(=O)O)cc1Cl` (stereo not given), the survivor count (dose: 100.0 mg/kg/injection, schedule: Q01DX010 (ip), vehicle: carboxymethylcellulose (CMC)) is 1 of 10.

Regarding `CCOC(=O)NP(=O)(N1CC1(C)C)N1CC1(C)C` (stereo not given), the T/C is, setting by setting: (dose: 31.0 mg/kg/injection, schedule: Q01DX010 (ip), vehicle: carboxymethylcellulose (CMC)) 125 % of control [9 of 10 alive]; (dose: 62.5 mg/kg/injection, schedule: Q01DX010 (ip), vehicle: carboxymethylcellulose (CMC)) 146 % of control. The survivor count is given as 0 of 10 (dose: 500.0 mg/kg/injection, schedule: Q01DX010 (ip), vehicle: carboxymethylcellulose (CMC)) and 0 of 10 (dose: 1000.0 mg/kg/injection, schedule: Q01DX010 (ip), vehicle: carboxymethylcellulose (CMC)).

`Clc1ccc(C(c2ccccc2Cl)C(Cl)Cl)cc1` (stereo not given): for the setting “dose: 100.0 mg/kg/injection, schedule: Q01DX010 (sc), vehicle: steroid suspending solution”, the T/C is 138 % of control.

As to `CSCS(=O)C[C@H](CO)NC(=O)/C=C/c1c(C)[nH]c(=O)[nH]c1=O` (stereo not given in full), the survivor count was 0 of 10 (dose: 1.0 mg/kg/injection, schedule: Q01DX010 (ip), vehicle: saline) and 0 of 10 (dose: 2.0 mg/kg/injection, schedule: Q01DX010 (ip), vehicle: saline).

`N=C(N)SCc1c2ccccc2c(CSC(=N)N)c2ccccc12`: the survivor count is reported as 6 of 10 (dose: 40.0 mg/kg/injection, schedule: Q01DX010 (ip), vehicle: carboxymethylcellulose (CMC)) and 0 of 10 (dose: 80.0 mg/kg/injection, schedule: Q01DX010 (ip), vehicle: carboxymethylcellulose (CMC)).

In the case of `Nc1nc(=S)c2[nH]cnc2[nH]1`, the survivor count reads like this: (dose: 0.5 mg/kg/injection, schedule: Q01DX010 (ip), vehicle: carboxymethylcellulose (CMC)) 0 of 10; under setting [1], 0 of 10.

On to `Cn1cnc([N+](=O)[O-])c1Sc1nc(N)nc2nc[nH]c12`, for which the survivor count is on record as 0 of 10 under setting [2] and 0 of 10 (dose: 16.0 mg/kg/injection, schedule: Q01DX010 (ip), vehicle: carboxymethylcellulose (CMC)).

As to `C[C@@H]1C[C@H]2CC[C@H](O2)[C@H](C)C(=O)O[C@@H](C)C[C@@H]2CC[C@@H](O2)[C@@H](C)C(=O)O[C@H](C)C[C@H]2CC[C@H](O2)[C@H](C)C(=O)O[C@@H](C)C[C@@H]2CC[C@@H](O2)[C@@H](C)C(=O)O1`, the survivor count (dose: 400.0 mg/kg/injection, schedule: Q01DX010 (ip), vehicle: carboxymethylcellulose (CMC)) is reported as 4 of 10.

Regarding `CC[C@H](c1ccc(O)cc1)[C@@H](CC)c1ccc(O)cc1`, the survivor count by setting is: (dose: 62.5 mg/kg/injection, schedule: Q01DX010 (sc), vehicle: steroid suspending solution) 4 of 10; under setting [3], 6 of 10; under setting [4], 6 of 10. The T/C under setting [3] is 137 % of control.

Turning to `NC(Cc1ccc(N(CCCl)CCCl)cc1)C(=O)O` (stereo not given), the T/C under setting [5] was 125 % of control. The survivor count (dose: 1.6 mg/kg/injection, schedule: Q01DX010 (ip), vehicle: saline) is listed as 0 of 10; the survivor count (dose: 10.0 mg/kg/injection, schedule: Q01DX010 (ip), vehicle: carboxymethylcellulose (CMC)) was 0 of 10; the survivor count (dose: 12.5 mg/kg/injection, schedule: Q01DX010 (ip), vehicle: saline) is recorded as 0 of 10; the survivor count (dose: 20.0 mg/kg/injection, schedule: Q01DX010 (ip), vehicle: carboxymethylcellulose (CMC)) is reported as 0 of 10.

In the case of `O=C(O)CCCc1ccc(N(CCCl)CCCl)cc1`, the survivor count is listed as 5 of 10 (dose: 25.0 mg/kg/injection, schedule: Q01DX010 (ip), vehicle: carboxymethylcellulose (CMC)) and 0 of 10 under setting [6].

Regarding `C[C@]12CCC(=O)C=C1CC[C@@H]1[C@@H]2CC[C@@]2(C)[C@H]1CC[C@]2(C)O`, the survivor count reads like this: under setting [4], 6 of 10; (dose: 1000.0 mg/kg/injection, schedule: Q01DX010 (sc), vehicle: steroid suspending solution) 1 of 10.

On to `C[C@]12CCC(=O)C=C1CC[C@@H]1[C@@H]2C(=O)C[C@@]2(C)[C@H]1CC[C@]2(O)C(=O)CO`, for which the survivor count under setting [4] is recorded as 0 of 10.

In the case of `C[n+]1c2ccccc2nc2c(N)cc(N)cc21`, the survivor count under setting [6] is on record as 0 of 10.

For the molecule `COC1=C(N)C(=O)c2nc(-c3nc(C(=O)O)c(C)c(-c4ccc(OC)c(OC)c4O)c3N)ccc2C1=O`, the survivor count (dose: 0.68 mg/kg/injection, schedule: Q01DX010 (ip), vehicle: other) is 0 of 6.

As for `Cc1c2oc3c(C)ccc(C(=O)N[C@@H]4C(=O)N[C@H](C(C)C)C(=O)N5CCC[C@H]5C(=O)N(C)CC(=O)N(C)[C@@H](C(C)C)C(=O)O[C@H]4C)c3nc-2c(C(=O)N[C@@H]2C(=O)N[C@H](C(C)C)C(=O)N3CCC[C@H]3C(=O)N(C)CC(=O)N(C)[C@@H](C(C)C)C(=O)O[C@H]2C)c(N)c1=O` (I: [aThr][dV]P[Sar][NMeV] / II: [aThr][dV]P[Sar][NMeV]; ester I:1-I:C, II:1-II:C; linker I:N-II:N via Actinocin(9to1)), the T/C (dose: 18.7 micrograms/kg/injection, schedule: Q01DX010 (ip), vehicle: saline) is 142 % of control. Moreover, the survivor count is 6 of 10 (dose: 25.0 micrograms/kg/injection, schedule: Q01DX010 (ip), vehicle: saline) and 0 of 10 (dose: 50.0 micrograms/kg/injection, schedule: Q01DX010 (ip), vehicle: saline).

`O=C(Nc1ccc(C2=NCCCN2)cc1)c1ccc(NC(=O)c2ccc(C3=NCCCN3)cc2)cc1`: the survivor count runs as follows: under setting [1], 3 of 10; (dose: 4.0 mg/kg/injection, schedule: Q01DX010 (ip), vehicle: carboxymethylcellulose (CMC)) 5 of 10; under setting [2], 2 of 10.

For the molecule `Nc1ncnc2c1ccn2C1OC(CO)C(O)C1O` (stereo not given), under setting [5], the T/C was 125 % of control. Besides, the survivor count was 5 of 10 (dose: 1.25 mg/kg/injection, schedule: Q01DX010 (ip), vehicle: carboxymethylcellulose (CMC)) and 0 of 10 (dose: 2.5 mg/kg/injection, schedule: Q01DX010 (ip), vehicle: carboxymethylcellulose (CMC)).

For the molecule `Nc1nc(SCc2ccccc2)c2[nH]cnc2n1`, the T/C (dose: 0.6 mg/kg/injection, schedule: Q01DX010 (ip), vehicle: carboxymethylcellulose (CMC)) is 140 % of control. Moreover, the survivor count was 0 of 10 (dose: 18.75 mg/kg/injection, schedule: Q01DX010 (ip), vehicle: carboxymethylcellulose (CMC)) and 0 of 10 (dose: 37.5 mg/kg/injection, schedule: Q01DX010 (ip), vehicle: carboxymethylcellulose (CMC)).

With `N[C@@H](Cc1ccc(N(CCCl)CCCl)cc1)C(=O)O`, the survivor count is recorded as 0 of 6 (dose: 0.88 mg/kg/injection, schedule: Q01DX010 (ip), vehicle: saline); 0 of 6 (dose: 4.7 mg/kg/injection, schedule: Q01DX010 (ip), vehicle: saline); 0 of 6 (dose: 7.0 mg/kg/injection, schedule: Q01DX010 (ip), vehicle: saline); 0 of 6 (dose: 14.0 mg/kg/injection, schedule: Q01DX010 (ip), vehicle: saline).

For `CC/C(=C(/CC)c1ccc(O)cc1)c1ccc(O)cc1`, the survivor count (dose: 125.0 mg/kg/injection, schedule: Q01DX010 (sc), vehicle: steroid suspending solution) is 4 of 10; the survivor count under setting [3] was 1 of 10; the survivor count under setting [4] is 0 of 10.

As for `OCC1OC(n2cnc3c(Cl)ncnc32)C(O)C1O` (stereo not given), the survivor count is 0 of 10 (dose: 2000.0 mg/kg/injection, schedule: Q01DX010 (ip), vehicle: carboxymethylcellulose (CMC)) and 0 of 10 (dose: 4000.0 mg/kg/injection, schedule: Q01DX010 (ip), vehicle: carboxymethylcellulose (CMC)).

On to `NC(=O)c1ccc(N)nc1`, for which, where the note is “dose: 0.63 mg/kg/injection, schedule: Q01DX010 (ip), vehicle: water”, the T/C was 149 % of control. For the same molecule, the survivor count reads like this: (dose: 2.5 mg/kg/injection, schedule: Q01DX010 (ip), vehicle: saline) 5 of 10; (dose: 5.0 mg/kg/injection, schedule: Q01DX010 (ip), vehicle: saline) 0 of 10.
